Results as given in patent publication US20130089513A1 (MEDEXGEN, published 2013).
Substitutions are numbered along the chain they refer to. Names and notes keep the numbering of the source. No constants are given. Whether binding was seen depends on the method and setting. Some entries that bind do so weakly or less than the wild type. Where a sequence is shown, tags or fusion partners need not be part of it.

What was measured:
[1] = biological target: T1, G-CSF receptor linked to Fc domain of human IgG (human) (UniProt Q99062); test: ELISA, coated G-CSF receptor-Fc
T1 sequence (looked up): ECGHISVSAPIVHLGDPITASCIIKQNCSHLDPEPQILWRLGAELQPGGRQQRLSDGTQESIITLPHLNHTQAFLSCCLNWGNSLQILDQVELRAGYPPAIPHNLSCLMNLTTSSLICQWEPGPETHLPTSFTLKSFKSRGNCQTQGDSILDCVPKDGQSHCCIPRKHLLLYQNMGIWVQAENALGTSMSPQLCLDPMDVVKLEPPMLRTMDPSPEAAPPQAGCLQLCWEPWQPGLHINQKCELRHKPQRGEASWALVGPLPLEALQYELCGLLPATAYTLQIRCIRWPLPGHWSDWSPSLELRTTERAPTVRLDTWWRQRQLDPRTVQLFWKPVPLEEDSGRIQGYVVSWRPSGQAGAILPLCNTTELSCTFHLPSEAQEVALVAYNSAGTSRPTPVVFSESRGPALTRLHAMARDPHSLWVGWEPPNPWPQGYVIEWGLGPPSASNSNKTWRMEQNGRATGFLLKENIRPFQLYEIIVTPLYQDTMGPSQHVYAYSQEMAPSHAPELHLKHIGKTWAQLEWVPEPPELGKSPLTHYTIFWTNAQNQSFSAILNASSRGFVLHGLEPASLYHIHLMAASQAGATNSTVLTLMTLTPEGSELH

[2] = biological target: T1, G-CSF receptor linked to Fc domain of human IgG (human); test: ELISA on coated G-CSF receptor-Fc, done like the TPO ELISA

Question: With “G-CSF-[F144V] (from UniProt P09919 31-207) (ligand)” as the molecule, how does the binding [1] read?
Answer: binds

Question: And the binding [2]?
Answer: binds

B1: wild type G-CSF (ligand)
chain: TPLGPASSLPQSFLLKCLEQVRKIQGDGAALQEKLCATYKLCHPEELVLLGHSLGIPWAPLSSCPSQALQLAGCLSQLHSGLFLYQGLLQALEGISPELGPTLDTLQLDVADFATTIWQQMEELGMAPALQPTQGAMPAFASAFQRRAGGVLVASHLQSFLEVSYRVLRHLAQP
notes: cDNA from leukocytes of healthy people; expressed in CHO-K1 cells; also called G-CSF wild type
Question: What does the source list for B1?
Answer: binding [1]: binds; binding [2]: binds

B2: G-CSF-[F140V] (ligand)
chain: B1 chain with F140V
notes: G-CSF mutein expressed in CHO-K1 cells; also called G-CSF-[F140VD]
Question: With B2 as the molecule, how does the binding [1] read?
Answer: binds

Question: And the binding [2]?
Answer: binds

B3: G-CSF-[F160V] (ligand)
chain: B1 chain with F160V
notes: G-CSF mutein expressed in CHO-K1 cells
Question: Which results are given for B3?
Answer: binding [1]: binds; binding [2]: binds
